# Screening data, single-dose tests

Data taken from ChEMBL document CHEMBL3988442, “University of Dundee, Small-Polar-MMV Screening Library” (2021).

The filed quantity is “Percent Effect” (%).
The record does not define 0% and 100%; most values in the screen are far below 50% and negative numbers occur (in some assays of this library far below -100).
This is an unselected part of the compounds tested.
Two or more numbers in one place are separate tests of the same structure; such repeats can differ widely.

Mtb cholesterol medium: 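Growth of Mycobacterium tuberculosis over 4 days (cholesterol / DPPC medium with tyloxapol); the read-out is not stated. Tested at 50 µM. Direction is inferred from retests: higher values go with more growth inhibition. Of about 69,000 compounds tested this way, about 370 (0.54%) reached 50% or more in at least one test.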
Mtb glucose medium: 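Growth of Mycobacterium tuberculosis over 3 days (7H9 medium with glucose and tyloxapol); the read-out is not stated. Compounds at 50 µM. Direction is inferred from retests: higher values go with more growth inhibition. Size under these conditions: about 69,000 compounds, about 760 of them at 50% or above in at least one test.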

| # | SMILES | Mtb cholesterol medium | Mtb glucose medium |
|---|---|---|---|
| 1 | `Cc1nc(C(C)C)sc1C(=O)N1CCC(N2CCSCC2)CC1` | -10.46 | -5.324 |
| 2 | `CCN(Cc1cnn(C)c1)C[C@H]1CC[C@@H](Cc2ccc(CO)cc2)O1` | -8.933 | 6.365 |
| 3 | `CCCS(=O)(=O)NC(C)C(=O)NCc1ccc(N2CCN(C)CC2)nc1` (stereo not shown) | -13.88 | -13.54 |
| 4 | `Cc1ccccc1-c1noc(C2CC(C(C)C)=NO2)n1` (stereo not shown) | 38.68 | 41.66 |
| 5 | `C=C(C)COc1ccccc1CNCCc1c[nH]cn1` | 3.775 | 35.08 |
| 6 | `O=C(CCC1CCN(C2Cc3ccccc3C2)CC1)NCC1CCCO1` (stereo not shown) | 5.838 | -2.998 and -27.35 |
| 7 | `O=C1CC2(CCSC2)C(=O)N1Cc1coc(-c2ccccc2)n1` (stereo not shown) | -19.6 | 1.209 |
| 8 | `COc1ccc(CN(C)[C@@H]2CN(C(=O)c3cccs3)C[C@H]2O)cc1` | -4.612 | -3.155 |
| 9 | `O=C(c1cscn1)N1CCCC(n2cncn2)C1` (stereo not shown) | -15.11 | -12.35 |
| 10 | `COc1cc(C)ccc1OCCC(=O)N1CCCC1Cn1cccn1` (stereo not shown) | -3.217 | 23.09 |
| 11 | `CCC(NC(=O)c1ccoc1)c1ccccc1OCC(=O)N1CCCC1` (stereo not shown) | -3.147 | 7.628 |
| 12 | `CN(CCNC(=O)N1CCCC1)C(=O)OC(C)(C)C` | 9.547 | 0.3384 and -0.5211 |
| 13 | `CS(=O)(=O)CCC(=O)NC1(c2cccc(Br)c2)CC1` | 15.36 | -4.657 |
| 14 | `O=C(COC1CCCC1)NCCCn1nc2ccccn2c1=O` | 11.95 | -2.589 |
| 15 | `Cc1csc(NC(=O)CN2CCCC(Cn3nc(C)nc3C)C2)n1` (stereo not shown) | 13.19 | 16.18 |
| 16 | `O=c1ccc2c([nH]1)CCN(S(=O)(=O)c1ccc3c(c1)CCCC3)C2` | -11.09 | -5.878 and -2.304 |
| 17 | `COc1ccccc1C(O)CNC(=O)Nc1ncccc1C` (stereo not shown) | 7.488 | 16.09 |
| 18 | `c1nc(N2CCCC(Cn3cncn3)C2)c2ccsc2n1` (stereo not shown) | -36.76 | -40.09 |
| 19 | `CCOc1ccc(C#N)cc1NC(=O)N1CCCC(NC(=O)CC)C1` (stereo not shown) | -15.93 | 10.69 |
| 20 | `Cc1ccccc1-n1ccnc1S(=O)(=O)Cc1nsc(N(C)C)n1` | -2.772 | -0.01844 and -7.972 |
| 21 | `Cc1nnc(NC(=O)NCc2ccc(N3CCC(C)CC3)nc2)s1` | 32.43 | 11.29 |
| 22 | `O=C(O)C(F)(F)F.[H][C@]12CCCN(Cc3nccs3)[C@@]1([H])CN(S(C)(=O)=O)C2` | -17.19 | -22.75 and -14.68 |
| 23 | `CCC(=O)N1CCCC(c2nc(N(C)C)ncc2-c2ccc(F)cc2)C1` (stereo not shown) | 5.006 | 46.96 |
| 24 | `Cc1cc(CN(C)C(=O)NC2CCCC2)no1` | -3.361 | -4.453 |
| 25 | `CCc1ccc(C(=O)N2CC(C(=O)NC(C)C)C3(CCOCC3)C2)cc1` (stereo not shown) | -14.63 | -10.32 |
| 26 | `Cc1cccc(N2Cc3nc(N4CCC(C)CC4)ncc3C2=O)c1` | -13.04 | -11.17 |
| 27 | `COc1ccc(S(=O)(=O)N2CCCC3(CCCN3S(C)(=O)=O)C2)cc1` (stereo not shown) | -18.83 | -24.22 |
| 28 | `CS(=O)(=O)CCOCCNc1ccc(C#N)cc1F` | 9.212 | 11.92 |
| 29 | `COc1ccc(-n2cnnc2SCCC#N)cn1` | 14.39 | 15.65 |
| 30 | `O=C(c1cc[nH]c(=O)c1)N1CCn2c(nnc2-c2ccccc2)C1` | 9.029 | -1.524 |
| 31 | `CC(C)CCCNC(=O)Nc1ccc(C(N)=O)c(Cl)c1` | -3.728 | -23.01 |
| 32 | `CCS(=O)(=O)N(C)C(=O)c1cc(C)n(-c2cccc(OC)c2)c1C` | 15.3 | 20.67 |
| 33 | `COCC1CN(c2ccc(C)nn2)Cc2cnn(CC3CCOCC3)c21.O=C(O)C(F)(F)F.O=C(O)C(F)(F)F` (stereo not shown) | 5.389 | 15.11 |
| 34 | `COC(=O)c1ccc(-c2ccc(/C=C3\C(=O)NC(=N)N3C)o2)cc1` | -44.37 | -58.33 |
| 35 | `Oc1cc(-c2nccs2)nc(C2CCN(Cc3cccs3)CC2)n1` | 9.566 | 9.572 |
| 36 | `Cc1cc(CN2CCC(CNC(=O)c3ccc4[nH]cnc4c3)C2)[nH]n1` (stereo not shown) | -26.67 and 5.23 | -3.915 and 2.889 |
| 37 | `COc1ccc(C(=O)NC2CC2)c(OC2CCN(C3CCC3)CC2)c1` | 1.043 and 5.818 | -6.288 |
| 38 | `Cc1c(I)cccc1C(=O)NCC1(CO)CC1` | 15.32 | 6.793 |
| 39 | `O=C(NCCc1cccnc1)NCCc1cccs1` | -20.97 | -35.62 |
| 40 | `CC(C)(O)CCc1cccc(C(=O)N2CCC[C@H]2C(N)=O)c1` | -14.56 and -6.649 | 3.846 |
| 41 | `NC(=O)CN1CCC(NC2CSCCc3ccccc32)CC1` (stereo not shown) | -12.21 | -27.33 |
| 42 | `NC[C@H]1CC[C@H](C(NC(=O)c2ccccc2)c2ccccn2)CC1` (stereo partly shown) | -13.98 | -8.863 |
| 43 | `CNC(=O)c1cccc(CC2COCCN(Cc3ccsc3)C2)n1` (stereo not shown) | -9.437 | -26.45 |
| 44 | `Cc1ccc(CN2Cc3c(C(=O)N4CCN(C)CC4)nn(C)c3C2)s1.O=C(O)C(F)(F)F.O=C(O)C(F)(F)F.O=C(O)C(F)(F)F` | 20.22 | -26.56 |
| 45 | `COc1ccc(C(C)NCc2scnc2C)cc1Cn1cccn1` (stereo not shown) | -3.641 and -10.9 | -4.169 |
| 46 | `CCC(CO)NC(=O)c1ccc2ccc(N(C)CC3CC3)n2c1` (stereo not shown) | 2.798 | 16.3 |
| 47 | `COCCC(Cc1cccc(Br)c1)C(=O)O` (stereo not shown) | 9.852 | -0.5943 and -2.72 |
| 48 | `CCc1cc(N[C@H](C(N)=O)[C@@H](C)CC)n2nccc2n1` | 0.5236 | 2.883 |
| 49 | `COc1ccccc1CCNC(=O)N1CCC(n2cncn2)CC1` | -3.293 | 31.38 |
| 50 | `Clc1cc(NCc2ncc[nH]2)nc2[nH]ccc12` | -5.012 | 57.57 |
| 51 | `CCN(CCc1nccs1)C(=O)c1ccco1` | 0.4494 | 11.45 |
| 52 | `CCc1nc2n(n1)CC(NCCC(=O)Nc1cc(C)on1)CC2` (stereo not shown) | 4.03 | -26.19 and 16.32 |
| 53 | `CC(C)c1nnc(CN2CCCC(c3cc(C(N)=O)[nH]n3)C2)o1` (stereo not shown) | -9.897 | -8.226 and -3.788 |
| 54 | `O=C(CN1CCCC(Cn2cncn2)C1)Nc1cccnc1` (stereo not shown) | -4.866 | -25.86 |
| 55 | `CN(C)C(=O)N1CC2(CCOCC2)c2cc(NC(=O)CCO)ccc21` | -11.85 | -40.91 and -3.043 |
| 56 | `CCn1cc(NC(=O)NCCN2CCCCCC2=O)cn1` | -8.755 | -15.42 |
| 57 | `COCc1nc(CN2CC(Cc3ccccc3)CC2=O)no1` (stereo not shown) | 28.66 | 21.55 |
| 58 | `CCOCCCC(=O)Nc1[nH]nc(-c2ccncc2)c1C` | -1.919 | -5.89 and -8.596 |

6 of the entries, repeated:

- COc1ccc(CN(C)[C@@H]2CN(C(=O)c3cccs3)C[C@H]2O)cc1 | Mtb cholesterol medium: -4.612%; Mtb glucose medium: -3.155%
- O=C(COC1CCCC1)NCCCn1nc2ccccn2c1=O | Mtb cholesterol medium: 11.95%; Mtb glucose medium: -2.589%
- CN(C)C(=O)N1CC2(CCOCC2)c2cc(NC(=O)CCO)ccc21 | Mtb cholesterol medium: -11.85%; Mtb glucose medium: -40.91% and -3.043%
- C=C(C)COc1ccccc1CNCCc1c[nH]cn1 | Mtb cholesterol medium: 3.775%; Mtb glucose medium: 35.08%
- O=c1ccc2c([nH]1)CCN(S(=O)(=O)c1ccc3c(c1)CCCC3)C2 | Mtb cholesterol medium: -11.09%; Mtb glucose medium: -5.878% and -2.304%
- CCN(Cc1cnn(C)c1)C[C@H]1CC[C@@H](Cc2ccc(CO)cc2)O1 | Mtb cholesterol medium: -8.933%; Mtb glucose medium: 6.365%